Data: patent US20100303812A1 (SMART TARGETING, published 2010)
Results are given in words; binding and its absence hold for the method and conditions named. Some entries that bind do so weakly or less than the wild type.

Protein sequences, listed by entry. Tags and fused reporters are not part of them. Lines headed by an entry give the natural chain unless they say otherwise; changes in a name come on top.
UniProt Q9NR61: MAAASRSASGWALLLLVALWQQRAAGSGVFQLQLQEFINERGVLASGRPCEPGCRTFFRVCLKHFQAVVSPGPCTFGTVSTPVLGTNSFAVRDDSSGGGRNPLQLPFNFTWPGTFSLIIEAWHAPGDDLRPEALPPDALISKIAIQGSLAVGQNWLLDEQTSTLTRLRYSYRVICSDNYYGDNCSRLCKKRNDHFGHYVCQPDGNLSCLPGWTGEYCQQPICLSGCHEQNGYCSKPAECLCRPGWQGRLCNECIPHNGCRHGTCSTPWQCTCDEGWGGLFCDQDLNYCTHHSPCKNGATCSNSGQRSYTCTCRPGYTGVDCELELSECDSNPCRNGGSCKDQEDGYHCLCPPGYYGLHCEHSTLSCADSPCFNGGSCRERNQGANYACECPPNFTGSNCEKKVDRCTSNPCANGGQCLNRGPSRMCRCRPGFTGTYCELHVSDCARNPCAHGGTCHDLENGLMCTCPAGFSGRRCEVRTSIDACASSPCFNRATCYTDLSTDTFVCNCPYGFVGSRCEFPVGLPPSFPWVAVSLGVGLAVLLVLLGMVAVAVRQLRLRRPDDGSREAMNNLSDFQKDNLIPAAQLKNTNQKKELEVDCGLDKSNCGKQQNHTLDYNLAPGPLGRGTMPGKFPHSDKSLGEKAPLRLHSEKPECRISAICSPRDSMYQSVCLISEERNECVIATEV

Target: T1, pure recombinant Dll4 (human, UniProt Q9NR61 27-524)
T1 construct: also called recombinant DLL4 ligand; immobilized Dll4
Assay: Biacore A100, antibody over immobilized recombinant Dll4

B1: cSTL4 (antibody, V domains shown)
VH: EVQLQQSGPELVKPGASVKMSCKASGYTFTSYVMHWVKQKPGQGLEWIGYIIPYNDGTKYNEKFKGKATLTSDKSSSTAYMELSSLTSEDSAVYYCARSEDYDHFDYWGQGTTVTVSS
VL: QIVLSQSPVILSASPGEKVTMTCRASSSVSFMHWYQQKPGSSPKPWIYATSNLTSGVPTRFSGSGSGTSYSLTISRVEAEDAATYYCQQWSSNPFTFGSGTKLEIKR
notes: Chimeric form of STL4: mouse VH and VL fused to human IgG heavy and kappa constant regions, expressed from pCAcc vectors; also called chimeric anti-Dll4 antibody; chimeric antibody; not shown: human IgG heavy constant region CH1-H-CH2-CH3; human immunoglobulin kappa light chain constant region
With B1 the binding was “binds”.
